The values that follow come from paper PMC11732235.

Chains of the proteins cited; added tags and fusions are not shown.
UniProt O89090, whole entry: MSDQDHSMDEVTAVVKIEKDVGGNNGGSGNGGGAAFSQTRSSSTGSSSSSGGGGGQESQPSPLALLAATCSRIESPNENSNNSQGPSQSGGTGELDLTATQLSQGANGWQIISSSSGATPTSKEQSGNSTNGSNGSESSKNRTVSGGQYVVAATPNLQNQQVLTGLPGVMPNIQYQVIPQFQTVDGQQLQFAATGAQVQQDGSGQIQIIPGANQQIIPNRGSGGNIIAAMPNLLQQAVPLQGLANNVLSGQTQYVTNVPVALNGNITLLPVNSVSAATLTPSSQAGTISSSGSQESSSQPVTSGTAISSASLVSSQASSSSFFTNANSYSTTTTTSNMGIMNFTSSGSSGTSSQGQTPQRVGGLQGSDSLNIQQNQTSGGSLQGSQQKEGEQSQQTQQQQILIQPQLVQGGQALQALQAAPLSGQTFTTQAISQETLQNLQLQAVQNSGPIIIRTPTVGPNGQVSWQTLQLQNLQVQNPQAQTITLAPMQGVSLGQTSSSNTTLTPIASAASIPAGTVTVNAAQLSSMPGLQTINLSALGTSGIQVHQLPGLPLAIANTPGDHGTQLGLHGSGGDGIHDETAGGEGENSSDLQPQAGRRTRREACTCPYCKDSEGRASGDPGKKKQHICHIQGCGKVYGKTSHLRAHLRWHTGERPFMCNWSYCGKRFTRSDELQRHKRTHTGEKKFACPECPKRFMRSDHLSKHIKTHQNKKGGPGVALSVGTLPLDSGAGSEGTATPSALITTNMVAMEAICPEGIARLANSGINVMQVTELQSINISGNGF

For this data set, the target named is Sp1 (UniProt O89090). Put plainly: EMSA supershift. The conditions noted are these: nuclear extract of Ang II-treated VSMCs, poly(dI-dC), anti-Sp1 antibody; Beyotime EMSA/Gel-Shift binding buffer (from 5x) with poly(dI-dC), 20 min, room temperature; 6% PAGE in 0.5x TBE; protein in an extract; label: biotin. (In general: Mobility shift assays separate free from complexed probe on a gel.)

Construct, isoform or probe ends are uncertain for at least one entry. Where cells or extracts were used, other partners may take part.

As to “GGGGAGGAGAGGGGCGGGTCGGACCT (double strand) [MMP2 promoter Sp1 probe]”, the binding result is given as “binds”.
